At least one compound was matched to its structure with a doubt left.
Experiments:
rat hearing = assay: Auditory brainstem responses after transtympanic injection in rat; type: in vivo, Sprague-Dawley rats; settings: p<0.01
HEI-OC1 [1] = assay: MTT assay in auditory cells HEI-OC1; type: cell-based; settings: HEI-OC1, 50 of cisplatin plus compound, as the dose of the compound increases
Description: HEI-OC1 and UB-OC1 as auditory cells were subjected to MTT assay. Auditory cell lines were seeded on a 96-well plate in the ratio of 2×10^3 cells/well, and then cultured in an incubator under the condition of 37° C., 5% CO2 for 2 days. The compounds of Examples 1 and 2 were used at various concentrations with operating 5 runs for each sample, and then cultured in the incubator for 16 hours. The plate was treated with 1 mg/ml MTT solution per well, and then cultured in the incubator for 4 hours. Then, 100 μl DMSO per well was used to dissolve formazan, and the optical density of formazan as dissolved was measured at 540 nm.

HEI-OC1 [2] = assay: Measurement of mitochondrial membrane potential (MMP), JC-1; type: cell-based; settings: cisplatin plus compound
Description: The mitochondrial membrane potential (MMP) was measured using 5,5V,6,6V-tetrachloro-1,1V,3,3V-tetraethylbenzimidazolcarbocyanine iodide (JC-1; Molecular Probes) as a lipophilic cationic probe.
JC-1 is a fluorescent dye which is accumulated by mitochondria in its inside. If the function of mitochondria is normal, MMP is high and mitochondria are predominantly red. Then, if mitochondria are damaged, MMP is reduced and mitochondria are changed into green.

zebrafish neuromast = assay: Observation of zebrafish neuromast using fluorescent microscope (Yo-Pro-1); type: in vivo, Danio rerio; settings: cisplatin plus compound, dose-dependent
Description: When embryo of zebrafish (Danio rerio) wild type is on the 4th day, the drugs (compounds of Examples 1 and 2) were added to 2 ml of embryo media in 6 well, and then 5 embryos were added to each group and reacted with the drug in the incubator maintained at 28.5° C. for one hour. After reaction, embryos were washed three times with embryo media, and then placed in clean embryo media for 3 hours. After 3 hours, […] of Yo-Pro-1 (molecular probes, Oregon U.S.A) was added to embryo media, and then reacted for one hour in the place with blocking the light. After reaction, embryos were washed again three times with clean embryo media, and anesthetized with 8 μg/ml of MS222 (3-aminobenzoic aid ethyl ester, methanesulfonate salt, Sigma Chemical CO, St Louis, U.S.A) anesthetic.

auditory cells = assay: FACScan with Annexin-V and PI double staining; type: cell-based; settings: 50 μM of cisplatin plus compound
Description: The degree of apoptosis was analyzed with Annexin V-FITC Apoptosis Detection kit I (BD Biosciences, San Diego, Calif.). 3×10^5 cells were seeded on 60 mm dish, incubated, then starved for 24 hours, and treated with the compounds of Examples 1 and 2 by conditions and incubated for 24 hours. After removing the culture solution, the cells were washed two times with PBS, and suspended in the binding buffer in the ratio of 1×10^6 cells/ml. 100 μl of this solution was transferred to 5 ml tube, and after addition of 5 μl of Annexin V-FITC to the tube, well mixed together, and then reacted for about 15 minutes in the dark place. Then, 400 μl of the binding buffer was added, and the cells were counted until 10,000 cells were on Becton Dicki nson FACSscan (Lysis II Ver. 1.0). The degree of apoptosis was measured depending on the expression of Annexin V-FITC from the result of FACScan flowcytometry. In addition, the degree of apoptosis was also measured under fluorescence microscope.

HEI-OC1 [3] = assay: TUNEL assay; type: cell-based; settings: cisplatin (50 μM with Example 1, 20 μM with Example 2) and compound administered at the same time
Description: 3×10^5 cells were seeded on the 6-well, incubated, then starved for 24 hours, and treated with the drug of the present invention by conditions, and then incubated for 24 hours. The cells were fixed with addition of 4% paraformaldehyde at normal temperature for 30 minutes, then washed two times with PBS, and treated with the permeablilization solution comprising 0.1% Triton X-100 at normal temperature for 10 minutes. The cells were washed again two times with PBS, and after adding terminal deoxynucleotidyl transferase (TDT) and nucleotide mixture, incubated for one hour with blocking out the light at 37° C. After washing two times with PBS, the apoptosis of cells was examined under fluorescence microscope. For control staining of cells without apoptosis, 4,6-diamino-2-phenylindole (DAPI, Sigma) solution was used. The stained cells were analyzed using a fluorescence microscope (Carl Zeiss, Oberkochen, Germany). TUNEL-positive cells were manually counted under a 200× magnification field in triplicate.

[4] = tested on: JNK, p38, cleaved caspase 3, PARP in HEI-OC1; assay: Western blotting of apoptosis-related proteins; type: cell-based; settings: cisplatin plus compound
rat cochlea = assay: Tissue TUNEL assay of rat cochlea; type: in vivo; settings: cisplatin plus transtympanic compound
Description: Animals were sedated using an intraperitoneal (IP) injection of 3.125 mg/kg xylazine, 3.125 mg/kg zolazepam and […]. The rats were divided into two groups after baseline auditory brainstem response (ABR) testing was performed. […] The control group (four rats, eight ears) received transtympanic saline in both ears followed by IP saline (16 mL/kg by IP infusion). The compound of Example 2 only group (four rats, eight ears) received transtympanic the compound of Example 2 in both ears followed by IP saline (16 mL/kg by IP infusion). On days 2 to 5, daily transtympanic injections of either 2 mM the compound of Example 2 or saline were continued. Posttreatment ABR was obtained on day 14.
After fixation by intralabyrinthine perfusion of 4% paraformaldehyde (pH 7.4), the cochleae were removed and then were incubated in the same fixative overnight. Decalcification was performed in ethylenediamine tetraacetic acid solution (EDTA) (10% in PBS) for 3-4 weeks. Subsequently, the tissues were embedded in paraffin.
Organ of Corti explants were each fixed for 15 min in 3.7% (v/v) formaldehyde in PBS at room temperature. Each explant was rinsed with PBS and incubated in proteinase K diluted from the TUNEL kit for 15 min at room temperature. […] Each explant was washed twice with PBS and examined using a fluorescence microscope.

HEI-OC1 cells = assay: Measurement of intracellular ROS generation (DCFDA); type: cell-based; settings: 50 μM cisplatin plus compound (100 μg/ml), 16 h
Description: Intracellular generation of ROS was quantified using 5-(and 6)-carboxyl-20,70-dichlorodihydro fluorescein diacetate (DCFDA; Molecular Probes, Eugene, Oreg., USA). […] ROS generation at various time points was checked and the amount of ROS generation was the highest at 16 h. Therefore, 16 h as the time point for ROS detection was chosen for subsequent experiments. Cells were incubated in the dark with 10 μM DCFDA in serum-free medium for 10 min at 33° C. The oxidative burst (hydrogen peroxide, H2O2) was detected using a FACScan flow cytometer (Becton Dickinson, Franklin Lakes, N.J., USA) with excitation and emission settings at 488 and 530 nm, respectively.

`NC1(c2ccc(F)cc2)C(=O)Nc2cccc(F)c2C1=O` (stereo not drawn) [Example 2, 3-amino-5-fluoro-3-(4-fluorophenyl)quinolin-2,4(1H,3H)-dione] was tested, and the “ABR threshold versus cisplatin only group” value (rat hearing) was “significantly lower”, the “cisplatin-induced apoptosis of auditory hair cells (MTT)” value (HEI-OC1 [1]) was “substantially same result” and the “cisplatin-induced mitochondria damage (loss of MMP, green fluorescence)” value (HEI-OC1 [2]) was “inhibited”. For the same compound, the “neuromast including auditory hair cells disappeared by cisplatin” value (zebrafish neuromast) was “effectively protected”, the “apoptosis increased by cisplatin (annexin/PI FACS), simultaneous administration of compound” value (auditory cells) was “statistically significantly inhibited” and the “apoptosis of auditory cells (TUNEL), cisplatin and compound at the same time” value (HEI-OC1 [3]) was “inhibited”. For the same compound, the “cisplatin-induced JNK, p38, cleaved caspase 3, PARP” value [4] was “effectively inhibited”, the “numbers of TUNEL positive cells in cochlea versus cisplatin only group” value (rat cochlea) was “lower” and the “cisplatin-induced intracellular ROS generation” value (HEI-OC1 cells) was “significantly inhibited”.
